Measurements from publication PMC8396604.
These are yes or no findings as the source states them, for the method shown. In cells and extracts the contact can be indirect. Here binding means that the protein was enriched with, or labelled near, the bait; the list need not be complete.

Amino acid sequences for entries named in this document (tags omitted).
UniProt P80206: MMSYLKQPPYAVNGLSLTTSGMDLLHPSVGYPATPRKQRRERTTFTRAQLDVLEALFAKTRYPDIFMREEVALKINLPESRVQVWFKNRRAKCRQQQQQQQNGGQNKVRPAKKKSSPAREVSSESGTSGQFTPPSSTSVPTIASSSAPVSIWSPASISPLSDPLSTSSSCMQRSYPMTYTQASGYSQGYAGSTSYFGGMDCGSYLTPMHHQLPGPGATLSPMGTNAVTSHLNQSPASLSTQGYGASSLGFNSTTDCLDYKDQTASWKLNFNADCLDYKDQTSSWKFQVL

B1: LIG3 (protein, UniProt P97386 1-1015)
chain: MTLAFKILFPRNLCALGRKELCLFPEQNRWAAISQFSQWSETNLLGGCCLLQRRKPVLALQRGHLRPRATHLTFWPGSHVGLCTGPCAMAEQRFCVDYAKRGTAGCKKCKEKIVKGVCRIGKVVPNPFSESGGDMKEWYHIKCMFEKLERARATTKKIEDLTELEGWEELEDNEKEQISQHIADLSSKAAATPKKKAAVQAKLTTTGQVTSPVKGASFITSTNPRKFSGFSAAKPNNSEQAPSSPAPGTSLSASKCDPKHKDCLLREFRKLCAMVAENPSYNTKTQIIHDFLQKGSTGGFSDGFHGDVYLTVKLLLPGVIKSVYNLNDKQIVKLFSRIFNCNPDDMARDLEQGDVSETIRIFFEQSKSFPPAAKSLLTIQEVDAFLLHLSKLTKEDEQQQALQDIASRCTANDLKCIIRLIKHDLKMNSGAKHVLDALDPNAYEAFKASRNLQDVVERVLHNEQEVEKDPGRRRALRVQASLMTPVQPMLAEACKSIEYAMKKCPNGMFSEIKYDGERVQVHKKGDHFSYFSRSLKPVLPHKVAHFKDYIPKAFPGGQSMILDSEVLLIDNNTGKPLPFGTLGVHKKAAFQDANVCLFVFDCIYFNDVSLMDRPLCERRKFLHDNMVEIRNRIMFSEMKQVTKASDLADMINRVIREGLEGLVLKDVKGTYEPGKRHWLKVKKDYLNEGAMADTADLVVLGAFYGQGSKGGMMSIFLMGCYDPDSQKWCTVTKCAGGHDDATLARLQKELVMVKISKDPSKIPSWLKINKIYYPDFIVPDPKKAAVWEITGAEFSRSEAHTADGISIRFPRCTRIRDDKDWKSATNLPQLKELYQLSKDKADFAVVAGDEASPTTGGSSGENEGTAGSAGPCKGPPSKSSASAKTTEQKLNSPSSRGGIKPIPKHSPMKPGEKLAVKSSPVKVGMKRKATDETPCLKKVLLDVFTGVRLYLPPSTPDFKRLKRYFVAFDGDLVQEFDMGSATHVLGNREKNTDAQLVSSEWIWACIRKRRLIAPC
B2: MLYCD (protein, UniProt Q99J39 39-492)
chain: MDELLRRAVPPTPAYELREKTPAPAEGQCADFVSFYGGLAEASQRAELLGRLAQGFGVDHGQVAEQSAGVLQLRQQAREAAVLLQAEDRLRYALVPRYRGLFHHISKLDGGVRFLVQLRADLLEAQALKLVEGPHVREMNGVLKSMLSEWFSSGFLNLERVTWHSPCEVLQKISECEAVHPVKNWMDMKRRVGPYRRCYFFSHCSTPGEPLVVLHVALTGDISNNIQGIVKECPPTETEERNRIAAAIFYSISLTQQGLQGVELGTFLIKRVVKELQKEFPQLGAFSSLSPIPGFTKWLLGLLNVQGKEHGRNELFTDSECQEISAVTGNPVHESLKGFLSSGEWVKSEKLTQALQGPLMRLCAWYLYGEKHRGYALNPVANFHLQNGAVMWRINWMADSSLKGLTSSCGLMVNYRYYLEETGPNSISYLGSKNIKASEQILSLVAQFQNNSKL
B3: MOV10 (protein, UniProt P23249 1-1004)
chain: MPSKFSCRKLRETGQRFESFLAERGLDLETDRERLRTIYNHDFKPSYGTPAPGFSSMLYGMKIANLAFVTKTRVRFFKLDRWADVQLPEKRRIKPGSNISKQHRSLLARIFHDRAEYLHGKHGVDVEVQGPHEARDGQLLIHLDLNRKEVLTLRLRNGGSKPVTLTHLFPLCWTPQFVFYHGEQDLPCPLGPGESYELHIYCKTSIVGYFPATVLWELLGPGESGAEGAETFYIARFLAAVAHSPLAAQLKPTTPFKRPPRLTRNSVLTNRIEEGERPDRAKGYELELSLALGTYYPPILLRQLLPTLLQGPSIFTAPKEVAEIKAQLETTLKSRNYEVKLRLLLHLEELQMEHDIRHYDLDSVPMTWDPVDQNPRLLTLEVPGVAESRPSVLRGDHLFALLSSETQQDDPVTYKGFVHKVELDRVKLSFSTSLLSRFVDGLTFKVNFTFNRQPLRVQHRALELTGRWVLWPMLFPVASRGVSLLPSDVKFKLYDRSLESNPEQLQAMKHIVRGTTRPAPYIIFGPPGTGKTVTLVEAIKQVVKHLPKAHILACAPSNSGADLLCQRLRVHLPSSIYRLLAPSRDIRMVPEDIKTCCNWDAKKGEYVYPAKKHLQQYRVLITTLITASRLVSAQFPIDHFTHIFIDEAGHCMEPESLVAIAGLMDVKETGNPGGQLVLAGDPRQLGPVLRSPLALKHGLGYSLLERLLAYNSLYKKGPNGYDPQFITKLLRNYRSHPTILDIPNQLYYDGELQACADVVDRERFCRWEGLPQQGFPIIFHGVMGKDEREGNSPSFFNPEEAATVTSYLKQLLAPSSKKGKARLSPRNVGVISPYRKQVEKIRYCITKLDRELRGLDDIKDLKVGSVEEFQGQERSVILISTVRSSQSFVQLDLDFNLGFLKNPKRFNVAVTRAKALLIVVGNPLLLGHDPDWKTFLEFCKENGGYTGCPFPAKLDLQQGQDLLQGLSKLSPSTSGPRRHQNLPQEREGEGGLPLQVEPEWRNEL
B4: NFATC2 (protein, UniProt Q60591 1-927)
chain: MDVPEPQPDPDGGDGPGHEPGGSPQDELDFSILFDYDYLNPIEEEPIAHKAISSPSGLAYPDDVLDYGLKPCNPLASLSGEPPGRFGEPDSIGFQNFLSPVKPAGASGPSPRIEITPSHELMQAGGALRGRDAGLSPEQPALALAGVAASPRFTLPVPGYEGYREPLCLSPASSGSSASFISDTFSPYTSPCVSPNNAGPDDLCPQFQNIPAHYSPRTSPIMSPRTSLAEDSCLGRHSPVPRPASRSSSPGAKRRHSCAEALVAPLPAASPQRSRSPSPQPSPHVALQDDSIPAGYPPTAGSAVLMDALNTLATDSPCGIPSKIWKTSPDPTPVSTAPSKAGLARHIYPTVEFLGPCEQEERRNSAPESILLVPPTWPKQLVPAIPICSIPVTASLPPLEWPLSNQSGSYELRIEVQPKPHHRAHYETEGSRGAVKAPTGGHPVVQLHGYMENKPLGLQIFIGTADERILKPHAFYQVHRITGKTVTTTSYEKIVGNTKVLEIPLEPKNNMRATIDCAGILKLRNADIELRKGETDIGRKNTRVRLVFRVHVPEPSGRIVSLQAASNPIECSQRSAHELPMVERQDMDSCLVYGGQQMILTGQNFTAESKVVFMEKTTDGQQIWEMEATVDKDKSQPNMLFVEIPEYRNKHIRVPVKVNFYVINGKRKRSQPQHFTYHPVPAIKTEPSDEYEPSLICSPAHGGLGSQPYYPQHPMLAESPSCLVATMAPCQQFRSGLSSPDARYQQQSPAAALYQRSKSLSPGLLGYQQPSLLAAPLGLADAHRSVLVHAGSQGQGQGSTLPHTSSASQQASPVIHYSPTNQQLRGGGHQEFQHIMYCENFGPSSARPGPPPINQGQRLSPGAYPTVIQQQTAPSQRAAKNGPSDQKEALPTGVTVKQEQNLDQTYLDDVNEIIRKEFSGPPSRNQT
B5: PITPNM2 (protein, UniProt Q6ZPQ6 1-1335)
chain: MIIKEYRIPLPMTVDEYRIAQLYMIQKKSRNETHGQGSGVEILENRPYTDGPGGSGQYTHKVYHVGMHIPGWFRSILPKAALRVVEESWNAYPYTRTRFTCPFVEKFSIDIETFYKTDTGENNNVFNLSPVEKSQLITDIIDIVKDPVPPSEYKTEEDPKLFQSVKTCRGPLSENWIQEYKKRLLPIMCAYKLCKVEFRYWGMQSKIERFIHDTGLRRVMVRAHRQAWCWQDEWYGLTMEKIRELEREVQLMLSRKMAQFSEEGPSELSKDSATKDQASGTTSDPGSKNGEPLGRGLKKQWSTSSKSSRSSKRGASPSRHSISEWRMQSIARDSDEGSEEEFFDAHENLYCTEEKQAKDMTKWNSNDLMDKMESPEPEESQDEIYQQSGSEFRVASSVEQLNIIEDEVSQPLAAPPSKIHVLLLVLHGGTILDTGAGDPSSKQGDTNTITNVFDTVMRVHYPSALGHLAIRLVPCPPICADAFALVSNLSPYGHDEGCLSSSQDHIPLAALPLLATSSPQYQEAVATVIQRANLAYGDFIKSQEGVTFNGQVCLIGDCVGGILAFDALCYSGQPVSESQSSSRRGSVVSMQDADLLSPGTLANAAHCSGGSGGGGSGGSSLESSRHLSRSNIDIPRSNGTEDSRRQLPRKRSDSSTYELDTIQQHQAFLSSLHASVLRNEPSSRRSSSSTMLDGAGALGKFDFEIADLFLFGCPLGLVLALRKTVIPSLDVFQLRPACQQVYNLFHPADPSASRLEPLLERRFHSLPPFSIPRYQRYPLGDGCSTLLADVLQTHNTVFQEHAAPSSPGTAPAGRGFRRASEISIASQVSGMAESYTASSIAQKGPSSLNHTPSIRRLSLLALPPPSPTTQGPRARARQVSPNLERAPCLPDLDIGEVAAKWWGQKRIDYALYCPDALTAFPTVALPHLFHASYWESTDVVSFLLRQVMRHDSSSILELDGKEVSVFTPSQPRERWQRKRTHVKLRNVAANHRINDAVANEDGPQVVTGRFMYGPLDMVTLTGEKVDVHIMTQPPSGEWLHLDTLVTNSSGRVSYTIPETHRLGVGVYPIKMVVRGDHTFADSYITVLPRGTEFVVFSIDGSFAASVSIMGSDPKVRAGAVDVVRHWQDLGYLIIYVTGRPDMQKQRVVAWLAQHNFPHGVVSFCDGLVHDPLRHKANFLKLLISELHLRAHAAYGSTKDVAVYNSISLSPMHIYIVGRPTKKLQQQCQFITDGYAAHLAQLKYNHRARPARNTATRMALRKGSFGLPGQSDFLRSRNHLLRTISAQPSGPSHRHDRTQTQMDSEQRGQRSMSVAASCWGRAMAGRLEPGAATGPK
B6: POLDIP3 (protein, UniProt Q8BG81 1-420)
chain: MADLSLDELIRKRGTAAKGRLSVRPGIGGVRSRVGIQHSLVNQPARTATFQQRFDARQKIGLSDARLKLGVKDAREKLLQKDARFRIKGKVQDAREMLNSRKQQGTVPQKPRQVADAREKISLKRRSPAAFTSPPIGTVTPALKLTKTIQVPQQKAMVPLHAHPAGMRINVVNNHQAKQNLYDLDEDDDIVVPVPPKQMKFAATGSLVHHMTGLSSSKLSMSKALPLTKVVQNDAYTAPVLPSSVRTKALTSMSRTLVNKEEPPKELPPAEPVLSPLEGTKMTVNNLHPRVTEEDIVELFCVCGALKRARLVHPGVAEVVFVKKDDAITAYKKYNNRCLDGQPMKCNLHMNGNVITSDQPILLRLSDSPSVKKESELPRRGNPASSNPPAEVDPDTVLRALFKSSGASVTTQPTEFKIKL
B7: RBM39 (protein, UniProt Q8VH51 1-530)
chain: MADDIDIEAMLEAPYKKDENKLNSANGHEERSKKRKKSKSRSRSHERKRSKSKERKRSRDRERKKSKSRERKRSRSKERRRSRSRSRDRRFRGRYRSPYSGPKFNSAIRGKIGLPHSIKLSRRRSRSKSPFRKDKSPVREPIDNLTPEERDARTVFCMQLAARIRPRDLEEFFSTVGKVRDVRMISDRNSRRSKGIAYVEFVDVSSVPLAIGLTGQRVLGVPIIVQASQAEKNRAAAMANNLQKGSAGPMRLYVGSLHFNITEDMLRGIFEPFGRIESIQLMMDSETGRSKGYGFITFSDSECAKKALEQLNGFELAGRPMKVGHVTERTDASSASSFLDSDELERTGIDLGTTGRLQLMARLAEGTGLQIPPAAQQALQMSGSLAFGAVAEFSFVIDLQTRLSQQTEASALAAAASVQPLATQCFQLSNMFNPQTEEEVGWDTEIKDDVIEECNKHGGVIHIYVDKNSAQGNVYVKCPSIAAAIAAVNALHGRWFAGKMITAAYVPLPTYHNLFPDSMTATQLLVPSRR

target: OTX2 homeoprotein (mouse (endogenous in adult mouse brain tissue)) (UniProt P80206); test: affinity purification with mass spectrometry; anti-OTX2 (ab21990) coupled to magnetic beads, lysate of pooled LV and 4V choroid plexus from four 3-month-old mice; 100 mM Tris pH 7.5, 1 mM EDTA, 100 mM NaCl, 1% NP40, 1 mM MgCl2, benzonase; 4 °C overnight; IgG co-IP as control; nano-LC-MS/MS; N = 3

binding, binds:
B1
B2
B3
B4
B5
B6
B7
